{
  "source": "the supplement of paper PMC8728848",
  "experiment_in_all_cases": "glycan array binding signal (z-score within array); higher = stronger binding",
  "settings_in_all_cases": "glycan notation: IUPAC condensed, linker removed",
  "key": {"[1]": {"target": "Fuc(a1-2)Gal(b1-4)GlcNAc(b1-3)Gal(b1-4)GlcNAc(b1-2)Man(a1-3)[Fuc(a1-2)Gal(b1-4)GlcNAc(b1-3)Gal(b1-4)GlcNAc(b1-2)Man(a1-6)]Man(b1-4)GlcNAc(b1-4)GlcNAc", "in_short": "(§1)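 From the Consortium for Functional Glycomics database, 3228 arrays were curated, keeping only those whose protein sequence was available. Binding is given as a within-array Z-score averaged across arrays sharing a protein sequence and across linkers. Negative Z-scores can be read as non-binding.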"}, "[2]": {"target": "Fuc(a1-2)Gal(b1-4)GlcNAc(b1-3)Gal(b1-4)GlcNAc(b1-3)Gal(b1-4)GlcNAc", "in_short": "as §1"}, "[3]": {"target": "Fuc(a1-2)Gal(b1-4)GlcNAc(b1-3)GalNAc", "in_short": "as §1"}, "[4]": {"target": "Fuc(a1-2)Gal(b1-4)GlcNAc(b1-3)[Fuc(a1-2)Gal(b1-4)GlcNAc(b1-6)]GalNAc", "in_short": "as §1"}, "[5]": {"target": "Fuc(a1-2)Gal(b1-4)GlcNAc(b1-3)[Fuc(a1-3)[Gal(b1-4)]GlcNAc(b1-6)]Gal(b1-4)Glc", "in_short": "as §1"}, "[6]": {"target": "Fuc(a1-2)Gal(b1-4)GlcNAc(b1-6)GalNAc", "in_short": "as §1"}, "[7]": {"target": "Fuc(a1-2)Gal(b1-4)GlcNAc6S", "in_short": "as §1"}, "[8]": {"target": "Fuc(a1-2)Gal(b1-4)[Fuc(a1-3)]GlcNAc", "in_short": "as §1"}, "[9]": {"target": "Fuc(a1-2)Gal(b1-4)[Fuc(a1-3)]GlcNAc(b1-2)Man(a1-3)[Fuc(a1-2)Gal(b1-4)[Fuc(a1-3)]GlcNAc(b1-2)Man(a1-6)]Man(b1-4)GlcNAc(b1-4)[Fuc(a1-6)]GlcNAc", "in_short": "as §1"}, "[10]": {"target": "Fuc(a1-2)Gal(b1-4)[Fuc(a1-3)]GlcNAc(b1-2)[Fuc(a1-2)Gal(b1-4)[Fuc(a1-3)]GlcNAc(b1-4)]Man(a1-3)[Fuc(a1-2)Gal(b1-4)[Fuc(a1-3)]GlcNAc(b1-2)Man(a1-6)]Man(b1-4)GlcNAc(b1-4)GlcNAc", "in_short": "as §1"}, "[11]": {"target": "Fuc(a1-2)Gal(b1-4)[Fuc(a1-3)]GlcNAc(b1-3)Gal(b1-4)[Fuc(a1-3)]GlcNAc", "in_short": "as §1"}, "[12]": {"target": "Fuc(a1-2)Gal(b1-4)[Fuc(a1-3)]GlcNAc(b1-3)Gal(b1-4)[Fuc(a1-3)]GlcNAc(b1-3)Gal(b1-4)[Fuc(a1-3)]GlcNAc", "in_short": "as §1"}, "[13]": {"target": "Fuc(a1-2)Gal(b1-4)[Fuc(a1-3)]GlcNAc(b1-3)GalNAc", "in_short": "as §1"}, "[14]": {"target": "Fuc(a1-2)Gal(b1-4)[Fuc(a1-3)]GlcNAc(b1-3)[Neu5Ac(a2-6)Gal(b1-4)GlcNAc(b1-6)]Gal(b1-4)Glc", "in_short": "as §1"}, "[15]": {"target": "Fuc(a1-2)Gal3S(b1-4)GlcNAc", "in_short": "as §1"}, "[16]": {"target": "Fuc(a1-2)Gal6S(b1-3)GlcNAc", "in_short": "as §1"}, "[17]": {"target": "Fuc(a1-2)Gal6S(b1-3)GlcNAc6S", "in_short": "as §1"}, "Fuc(a1-2)Gal6S(b1-4)Glc": {"target": "Fuc(a1-2)Gal6S(b1-4)Glc", "in_short": "as §1"}, "[18]": {"target": "Fuc(a1-2)Gal6S(b1-4)Glc6S", "in_short": "as §1"}, "Fuc(a1-2)[Gal(a1-3)]Gal": {"target": "Fuc(a1-2)[Gal(a1-3)]Gal", "in_short": "as §1"}, "[19]": {"target": "Fuc(a1-2)[Gal(a1-3)]Gal(b1-3)GalNAc", "in_short": "as §1"}, "[20]": {"target": "Fuc(a1-2)[Gal(a1-3)]Gal(b1-3)GalNAc(b1-3)Gal(a1-4)Gal(b1-4)Glc", "in_short": "as §1"}, "[21]": {"target": "Fuc(a1-2)[Gal(a1-3)]Gal(b1-3)GlcNAc", "in_short": "as §1"}, "[22]": {"target": "Fuc(a1-2)[Gal(a1-3)]Gal(b1-3)GlcNAc(b1-2)Man(a1-3)[Fuc(a1-2)[Gal(a1-3)]Gal(b1-3)GlcNAc(b1-2)Man(a1-6)]Man(b1-4)GlcNAc(b1-4)GlcNAc", "in_short": "as §1"}, "[23]": {"target": "Fuc(a1-2)[Gal(a1-3)]Gal(b1-3)GlcNAc(b1-2)Man(a1-3)[Fuc(a1-2)[Gal(a1-3)]Gal(b1-3)GlcNAc(b1-2)Man(a1-6)]Man(b1-4)GlcNAc(b1-4)[Fuc(a1-6)]GlcNAc", "in_short": "as §1"}, "[24]": {"target": "Fuc(a1-2)[Gal(a1-3)]Gal(b1-3)GlcNAc(b1-3)GalNAc", "in_short": "as §1"}, "[25]": {"target": "Fuc(a1-2)[Gal(a1-3)]Gal(b1-3)GlcNAc(b1-6)GalNAc", "in_short": "as §1"}, "[26]": {"target": "Fuc(a1-2)[Gal(a1-3)]Gal(b1-4)Glc", "in_short": "as §1"}, "[27]": {"target": "Fuc(a1-2)[Gal(a1-3)]Gal(b1-4)GlcNAc", "in_short": "as §1"}, "[28]": {"target": "Fuc(a1-2)[Gal(a1-3)]Gal(b1-4)GlcNAc(b1-2)Man", "in_short": "as §1"}},
  "note": "The list shows a part of the results.",
  "data": [
    {"binder": "SUN4 (Saccharomyces cerevisiae), P53616 (protein) MGSSHHHHHHSSGLVPRGSHNGSIYGDLADFSGPYEKFEDGTIPCGQFPSGQGVIPISWLDEGGWSGVENTDTSTGGSCKEGSYCSYACQPGMSKTQWPSDQPSDGRSIGGLLCKDGYLYRSNTDTDYLCEWGVDAAYVVSELSNDVAICRTDYPGTENMVIPTYVQAGDSLPLTVVDQDTYYTWQGLKTSAQYYVNNAGISVEDACVWGSSSSGVGNWAPLNFGAGSSDGVAYLSLIPNPNNGNALNFNVKIVAADDSSTVNGECIYENGSFSGGSDGCTVSVTAGKAKFVLYN", "values": [
      {"measurement": "glycan array binding signal (z-score)", "setting": "[1]", "value": -0.222},
      {"measurement": "glycan array binding signal (z-score)", "setting": "[2]", "value": -0.388},
      {"measurement": "glycan array binding signal (z-score)", "setting": "[3]", "value": 0.366},
      {"measurement": "glycan array binding signal (z-score)", "setting": "[4]", "value": 0.169},
      {"measurement": "glycan array binding signal (z-score)", "setting": "[5]", "value": 0.728},
      {"measurement": "glycan array binding signal (z-score)", "setting": "[6]", "value": 0.69},
      {"measurement": "glycan array binding signal (z-score)", "setting": "[7]", "value": -0.669},
      {"measurement": "glycan array binding signal (z-score)", "setting": "[8]", "value": 0.241},
      {"measurement": "glycan array binding signal (z-score)", "setting": "[9]", "value": 1.35},
      {"measurement": "glycan array binding signal (z-score)", "setting": "[10]", "value": 0.419},
      {"measurement": "glycan array binding signal (z-score)", "setting": "[11]", "value": -0.149},
      {"measurement": "glycan array binding signal (z-score)", "setting": "[12]", "value": 0.026},
      {"measurement": "glycan array binding signal (z-score)", "setting": "[13]", "value": 0.099},
      {"measurement": "glycan array binding signal (z-score)", "setting": "[14]", "value": -0.432},
      {"measurement": "glycan array binding signal (z-score)", "setting": "[15]", "value": -0.353},
      {"measurement": "glycan array binding signal (z-score)", "setting": "[16]", "value": -0.969},
      {"measurement": "glycan array binding signal (z-score)", "setting": "[17]", "value": 1.81},
      {"measurement": "glycan array binding signal (z-score)", "setting": "Fuc(a1-2)Gal6S(b1-4)Glc", "value": 0.484},
      {"measurement": "glycan array binding signal (z-score)", "setting": "[18]", "value": -0.372},
      {"measurement": "glycan array binding signal (z-score)", "setting": "Fuc(a1-2)[Gal(a1-3)]Gal", "value": 0.062},
      {"measurement": "glycan array binding signal (z-score)", "setting": "[19]", "value": -0.657},
      {"measurement": "glycan array binding signal (z-score)", "setting": "[20]", "value": -0.573},
      {"measurement": "glycan array binding signal (z-score)", "setting": "[21]", "value": -0.144},
      {"measurement": "glycan array binding signal (z-score)", "setting": "[22]", "value": -0.246},
      {"measurement": "glycan array binding signal (z-score)", "setting": "[23]", "value": -1.52},
      {"measurement": "glycan array binding signal (z-score)", "setting": "[24]", "value": -0.997},
      {"measurement": "glycan array binding signal (z-score)", "setting": "[25]", "value": -0.368},
      {"measurement": "glycan array binding signal (z-score)", "setting": "[26]", "value": 1.01},
      {"measurement": "glycan array binding signal (z-score)", "setting": "[27]", "value": 0.076},
      {"measurement": "glycan array binding signal (z-score)", "setting": "[28]", "value": -0.567}
    ]}
  ]
}
